No constants are given. Whether binding was seen depends on the method and setting. In cells and extracts the contact can be indirect. Some entries that bind do so weakly or less than the wild type. Where a sequence is shown, tags or fusion partners need not be part of it.
Columns and labels:
Test in all cases: co-IP; ectopic co-IP in HEK293 cells transfected with 3xHA- or FLAG-tagged constructs; ANTI-FLAG M2 beads, about 3 h at 4 °C, Co-IP buffer (50 mM Tris/Cl pH 7.5, 150 mM NaCl, 1% Triton X-100, 1 mM EDTA, 10% glycerol); western blot; in some panels cells treated with DMSO or 20 nM ORY-1001
[1] = molecular target: KDM1A IDR (1-172), tagged, expressed in HEK293 (UniProt O60341)
[2] = molecular target: KDM1A IDR/SWIRM/AOD-N (1-417), tagged, expressed in HEK293 (UniProt O60341)
[3] = molecular target: T1, SAMD1 FL (1-538), tagged, expressed in HEK293 (UniProt Q6SPF0)
T1 sequence: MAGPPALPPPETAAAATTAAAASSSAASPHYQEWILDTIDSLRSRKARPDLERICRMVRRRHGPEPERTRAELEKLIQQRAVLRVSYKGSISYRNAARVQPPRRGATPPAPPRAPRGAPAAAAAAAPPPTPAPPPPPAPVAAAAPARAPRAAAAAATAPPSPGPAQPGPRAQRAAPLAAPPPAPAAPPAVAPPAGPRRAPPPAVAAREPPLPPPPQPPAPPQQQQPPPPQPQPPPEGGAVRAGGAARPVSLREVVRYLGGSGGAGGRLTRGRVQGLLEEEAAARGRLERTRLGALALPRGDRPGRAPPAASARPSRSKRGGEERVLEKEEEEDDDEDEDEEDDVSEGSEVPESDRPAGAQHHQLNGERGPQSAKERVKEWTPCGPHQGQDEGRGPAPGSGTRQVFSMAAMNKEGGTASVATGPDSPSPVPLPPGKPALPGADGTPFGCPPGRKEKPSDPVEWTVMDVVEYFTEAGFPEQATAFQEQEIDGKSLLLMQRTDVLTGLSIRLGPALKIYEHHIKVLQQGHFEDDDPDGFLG

[4] = molecular target: T2, SAMD1 ΔSAM (1-450), tagged, expressed in HEK293 (UniProt Q6SPF0)
T2 sequence: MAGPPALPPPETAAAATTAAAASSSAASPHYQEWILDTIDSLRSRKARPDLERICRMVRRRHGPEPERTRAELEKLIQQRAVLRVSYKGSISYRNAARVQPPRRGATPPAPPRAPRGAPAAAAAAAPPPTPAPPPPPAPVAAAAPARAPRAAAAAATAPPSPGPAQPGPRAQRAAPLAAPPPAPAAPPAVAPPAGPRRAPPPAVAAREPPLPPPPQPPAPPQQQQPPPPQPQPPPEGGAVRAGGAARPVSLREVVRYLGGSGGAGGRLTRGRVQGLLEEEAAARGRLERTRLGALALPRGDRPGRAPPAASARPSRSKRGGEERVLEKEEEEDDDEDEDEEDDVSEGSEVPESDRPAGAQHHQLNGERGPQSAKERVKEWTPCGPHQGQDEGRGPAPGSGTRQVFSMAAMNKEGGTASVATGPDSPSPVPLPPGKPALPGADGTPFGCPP

B1: FBXO11 FL (1-843, Q86XK2-6), tagged, expressed in HEK293 (protein, UniProt Q86XK2-6 1-843)
chain: MVAEESGPGAQNSPYQLRRKTLLPKRTACPTKNSMEGASTSTTENFGHRAKRARVSGKSQDLSAAPAEQYLQEKLPDEVVLKIFSYLLEQDLCRAACVCKRFSELANDPILWKRLYMEVFEYTRPMMHPEPGKFYQINPEEYEHPNPWKESFQQLYKGAHVKPGFAEHFYSNPARYKGRENMLYYDTIEDALGGVQEAHFDGLIFVHSGIYTDEWIYIESPITMIGAAPGKVADKVIIENTRDSTFVFMEGSEDAYVGYMTIRFNPDDKSAQHHNAHHCLEITVNCSPIIDHCIIRSTCTVGSAVCVSGQGACPTIKHCNISDCENVGLYITDHAQGIYEDNEISNNALAGIWVKNHGNPIIRRNHIHHGRDVGVFTFDHGMGYFESCNIHRNRIAGFEVKAYANPTVVRCEIHHGQTGGIYVHEKGRGQFIENKIYANNFAGVWITSNSDPTIRGNSIFNGNQGGVYIFGDGRGLIEGNDIYGNALAGIQIRTNSCPIVRHNKIHDGQHGGIYVHEKGQGVIEENEVYSNTLAGVWVTTGSTPVLRRNRIHSGKQVGVYFYDNGHGVLEDNDIYNHMYSGVQIRTGSNPKIRRNKIWGGQNGGILVYNSGLGCIEDNEIFDNAMAGVWIKTDSNPTLRRNKIHDGRDGGICIFNGGRGLLEENDIFRNAQAGVLISTNSHPILRKNRIFDGFAAGIEITNHATATLEGNQIFNNRFGGLFLASGVNVTMKDNKIMNNQDAIEKAVSRGQCLYKISSYTSYPMHDFYRCHTCNTTDRNAICVNCIKKCHQGHDVEFIRHDRFFCDCGAGTLSNPCTLAGEPTHDTDTLYDSAPPIESNTLQHN
binding [1]: binds
binding [2]: binds
binding [3]: binds
binding [4]: binds

B2: FBXO11 IDR + F-box (1-300), tagged, expressed in HEK293 (domain or fragment, UniProt Q86XK2-6 1-300)
chain: MVAEESGPGAQNSPYQLRRKTLLPKRTACPTKNSMEGASTSTTENFGHRAKRARVSGKSQDLSAAPAEQYLQEKLPDEVVLKIFSYLLEQDLCRAACVCKRFSELANDPILWKRLYMEVFEYTRPMMHPEPGKFYQINPEEYEHPNPWKESFQQLYKGAHVKPGFAEHFYSNPARYKGRENMLYYDTIEDALGGVQEAHFDGLIFVHSGIYTDEWIYIESPITMIGAAPGKVADKVIIENTRDSTFVFMEGSEDAYVGYMTIRFNPDDKSAQHHNAHHCLEITVNCSPIIDHCIIRSTCT
binding [3]: binds

B3: FBXO11 ΔUBR (1-737), tagged, expressed in HEK293 (domain or fragment, UniProt Q86XK2-6 1-737)
chain: MVAEESGPGAQNSPYQLRRKTLLPKRTACPTKNSMEGASTSTTENFGHRAKRARVSGKSQDLSAAPAEQYLQEKLPDEVVLKIFSYLLEQDLCRAACVCKRFSELANDPILWKRLYMEVFEYTRPMMHPEPGKFYQINPEEYEHPNPWKESFQQLYKGAHVKPGFAEHFYSNPARYKGRENMLYYDTIEDALGGVQEAHFDGLIFVHSGIYTDEWIYIESPITMIGAAPGKVADKVIIENTRDSTFVFMEGSEDAYVGYMTIRFNPDDKSAQHHNAHHCLEITVNCSPIIDHCIIRSTCTVGSAVCVSGQGACPTIKHCNISDCENVGLYITDHAQGIYEDNEISNNALAGIWVKNHGNPIIRRNHIHHGRDVGVFTFDHGMGYFESCNIHRNRIAGFEVKAYANPTVVRCEIHHGQTGGIYVHEKGRGQFIENKIYANNFAGVWITSNSDPTIRGNSIFNGNQGGVYIFGDGRGLIEGNDIYGNALAGIQIRTNSCPIVRHNKIHDGQHGGIYVHEKGQGVIEENEVYSNTLAGVWVTTGSTPVLRRNRIHSGKQVGVYFYDNGHGVLEDNDIYNHMYSGVQIRTGSNPKIRRNKIWGGQNGGILVYNSGLGCIEDNEIFDNAMAGVWIKTDSNPTLRRNKIHDGRDGGICIFNGGRGLLEENDIFRNAQAGVLISTNSHPILRKNRIFDGFAAGIEITNHATATLEGNQIFNNRFGGLFLASGVNVTMKDNKIMN
binding [3]: binds

— PMC11343471
